Results from patent US20160193240A1, “Ulmoside-A: Useful For Prevention Or Cure Of Metabolic Diseases” (COUNCIL OF SCIENTIFIC & INDUSTRIAL RESEARCH, priority 2013, published 2016).

Tested on: wistar rats
Test: Dexamethasone induced loss of body weight and death in rats
Conditions: baseline
Procedure: All animal experiments were conducted in accordance with current legislation on animal experiments [Institutional Animal Ethical Committee (IAEC)] at C.D.R.I. In all animal experiments, rats were individually housed at 21° C., in 12-h light:12-h dark cycles. All animals had access to normal chow diet and water ad libitum.
Food intake was measured daily and the rats were weighed each week. The rats were fasted overnight (O/N) on day 14th and on day 15th oral glucose tolerance test was performed. Following oral glucose tolerance test (OGTT), rats were kept with food and water ad libitum for one day. On day 16th, rats were fasted again O/N and then euthanized. At autopsy, from 5 animals/group, tissues were collected and snap frozen in liquid nitrogen. Blood was collected from cardiac punctures. Plasma was separated from whole blood by centrifugation at 3000 rpm for 20 min immediately after collection of blood and stored at −80° C. until further analysis. […] (quadriceps) skeletal muscles were processed for RNA and protein extraction, followed by quantitative real-time PCR (QRT-PCR) analysis. Two animals from each group were used for photography post autopsy.

SMILES: O=C1c2c(cc(O)c([C@@H]3O[C@H](CO)[C@@H](O)[C@H](O)[C@H]3O)c2O)O[C@@H](c2ccc(O)c(O)c2)[C@@H]1O [ULMA, (2S,3S)-(+)-3′,4′,5,7-tetrahydroxydihydroflavonol-6-C-β-D-glucopyranoside]
- Initial body weight (Dex + ULMA-1 mg group): 178.9 ± 2.4 g
- Initial body weight (g) (Dex + ULMA-5 mg group): 180.7 ± 3.2 ^ g
